Binding data for one molecule are collected here from paper doi:10.1101/2024.03.08.584095.

These are yes or no findings as the source states them, for the method shown. Some binding calls cover weakened binding; strength is not graded here.

The assay addresses light-dependent protochlorophyllide oxidoreductase B of Arabidopsis thaliana (AtPORB) (A. thaliana) (UniProt P21218). The assay can be described thus: negative-stain electron microscopy.

B1: light-dependent protochlorophyllide oxidoreductase B of Arabidopsis thaliana (AtPORB) (enzyme, UniProt P21218 67-401)
chain: QTAATSSPTVTKSVDGKKTLRKGNVVVTGASSGLGLATAKALAETGKWNVIMACRDFLKAERAAKSVGMPKDSYTVMHLDLASLDSVRQFVDNFRRTETPLDVLVCNAAVYFPTAKEPTYSAEGFELSVATNHLGHFLLARLLLDDLKKSDYPSKRLIIVGSITGNTNTLAGNVPPKANLGDLRGLAGGLNGLNSSAMIDGGDFDGAKAYKDSKVCNMLTMQEFHRRFHEETGVTFASLYPGCIASTGLFREHIPLFRALFPPFQKYITKGYVSETESGKRLAQVVSDPSLTKSGVYWSWNNASASFENQLSEEASDVEKARKVWEISEKLVGLA
On to B1, for which the binding entry is listed as “binds”.
